Cell number change and AC50 data for 59 molecules are collected here from PubChem BioAssay AID2685 (National Center for Advancing Translational Sciences (NCATS), 2010).

Where “and” joins values, the source holds several entries; their conditions need not be identical. Identical values can stand only once. The list shows a part of the results. These are further read-outs of the screen, such as a control signal, another cell line or another target. No call is given for them. Compounds called inactive in the main read-out are mostly missing here. The note in brackets gives the kind of curve behind each potency; many fits are weak.

This test in a line: qHTS Assay for Lipid Storage Modulators in Drosophila S3 Cells.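 On Cell number change: cells counted by Cell Tracker Red CMTPX staining in the red channel.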 The note with it: BODIPY lipid droplet fluorescence, 18-24 h; for cell number change: measured here: cell count max response, cells fed with added oleic acid. A digest of the protocol: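 Drosophila S3 cells loaded with oleic acid (400 uM, as added) and compounds at several concentrations; lipid droplets imaged by 488-nm laser-scanning cytometry, 500–530 nm intensity and object ratio to cell channel. Percent activity normalized to 20 uM Triacsin C.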

Setting [1] is: measured here: cell number channel AC50, cells fed with added oleic acid.
Setting [2] is: measured here: lipid fluorescence (Fed channel) AC50, cells fed with added oleic acid.

Turning to `Cc1cc(C)n(C(=O)/C(C#N)=N/Nc2cc(Cl)cc(Cl)c2)n1`, the cell number change is -67.5%. Moreover, the concentration at half-maximal activity (AC50) (commonly the midpoint of the concentration-response curve, whichever way the signal moves) under setting [1] was 7.31 µM [falling, partial curve].

Take `Cc1ccc(NC(=O)C2CCN(S(C)(=O)=O)CC2)cc1Cl`: the cell number change was -13.8%. In addition, the AC50 under setting [2] was 32.6 µM [falling, single point].

Take `O=S(=O)(c1cc(Cl)ccc1Cl)N1CCCCC1`: the cell number change was found to be 49.5%. The concentration at half-maximal activity (AC50) under setting [1] was 10.3 µM [rising, partial curve]. Besides, under setting [2], the AC50 was 0.0164 µM [rising, full curve].

As for `O=C(Nc1ccc2c(c1)OCCO2)c1cc(-c2ccccn2)nc2ccc(Br)cc12`, the cell number change was -55.8%. The concentration at half-maximal activity (AC50) under setting [1] was 20.6 µM [falling, partial curve]. Moreover, the concentration at half-maximal activity (AC50) under setting [2] was 16.4 µM [falling, partial curve].

Turning to `CCN(CC)S(=O)(=O)c1ccc(NC(=O)c2ccc(OCC3CCCO3)cc2)cc1` (centres undefined), the cell number change was -41.7%. For the same molecule, the concentration at half-maximal activity (AC50) under setting [1] is 20.6 µM [falling, partial curve]. Besides, under setting [2], the half-maximal activity concentration (AC50) was 0.291 µM [falling, partial curve, poor fit].

For the molecule `CC1(C)N([O-])C(c2ccccc2)=C[N+](=O)C1(C)C`, the cell number change turned out to be 0.552%. Further, under setting [2], the AC50 was 0.461 µM [rising, single point].

On to `CCCCc1nc2cc(C(=O)N3CCCCC3C(=O)OC)ccc2o1` (centres undefined), for which the AC50 under setting [2] was 2.91 µM [falling, single point].

Take `CC1CCCCC1NC(=O)/C(C#N)=C/c1ccccc1F` (centres undefined): the cell number change is -37%. Besides, the AC50 under setting [1] was 16.4 µM [falling, partial curve]. In addition, under setting [2], the AC50 was 3.66 µM [falling, partial curve].

`O=C(NC1CCCCCCC1)C1=COCCO1`: the cell number change was 13.3%. Under setting [1], the AC50 was 0.731 µM [falling, full curve]. Further, the concentration at half-maximal activity (AC50) under setting [2] was 0.92 µM [falling, full curve].

Turning to `CC(=O)N=C1C=CC(=CN(O)C(C)(C)Cc2ccccc2)C=C1`, the cell number change was -9.97%. For the same molecule, the concentration at half-maximal activity (AC50) under setting [2] was 29.1 µM [falling, single point].

As to `COc1ccc(C(=O)Nc2nnc(S(=O)(=O)N3CCCCCC3)s2)cc1OC`, the cell number change was -3.29%. Also, the AC50 under setting [2] is 2.91 µM [falling, partial curve, poor fit].

Take `CC1CCCCN1C(=O)CSc1nnc(-c2ccccc2F)o1` (centres undefined): the cell number change is 23.1%. For the same molecule, the AC50 under setting [1] is 2.91 µM [rising, partial curve, poor fit].

For `Cc1nn(CCCC(=O)Nc2cc(Oc3ccccc3)cc([N+](=O)[O-])c2)c(C)c1[N+](=O)[O-]`, the cell number change is -13.4%. For the same molecule, the half-maximal activity concentration (AC50) under setting [2] was 23.1 µM [falling, single point].

`COc1ccc(-c2ccc3nnc(SCC(=O)N4CCCC4)n3n2)cc1`: the AC50 under setting [1] is 2.91 µM [rising, partial curve, poor fit].

On to `Cc1nc2ccccc2nc(C)c1=NOCc1ccc(Cl)cc1Cl`, for which the cell number change turned out to be 8.87%. Also, under setting [2], the AC50 was 9.2 µM [rising, partial curve, poor fit].

On to `CCOc1cc(N2CCOCC2)c(OCC)cc1NC(=O)C1CC(=O)N(c2ccc(C)cc2)C1` (centres undefined), for which the cell number change was 8.8%. Under setting [2], the AC50 is 4.11 µM [rising, full curve].

On to `CC1=CC(C)=Nc2ccc(C)cc2N1`, for which the cell number change is 18.1% and 13.2%. Under setting [2], the half-maximal activity concentration (AC50) is 29.1 µM [rising, single point].

Turning to `Clc1cccc(-c2nnc(-c3ccccc3)o2)c1`, the cell number change stood at 172%.

Regarding `CCCN1C(=O)CC(C(=O)OC)=C1C`, the cell number change was -8.2%.

For `COc1cc(C2C=C(Nc3ccccc3)C(=O)N2c2ccccc2)ccc1O` (centres undefined), the cell number change amounted to 1.66%. Besides, the AC50 under setting [2] is 0.00461 µM [rising, full curve, poor fit].

Regarding `C/C(N)=C(/C#N)C(=O)CSc1nnc(SCc2ccc(Cl)cc2)s1`, the cell number change is -16.1%. In addition, the concentration at half-maximal activity (AC50) under setting [2] was 9.2 µM [rising, partial curve].

Regarding `O=C(COC(=O)Cc1ccccc1F)Nc1cccc(F)c1`, the cell number change is -31%. Besides, the half-maximal activity concentration (AC50) under setting [1] was 2.06 µM [falling, full curve]. In addition, the concentration at half-maximal activity (AC50) under setting [2] is 0.731 µM [falling, partial curve].

Consider `COc1cc(/C=C2/C(=O)N(C)C(=S)N2C)ccc1OCc1cccc(F)c1`, for which the cell number change is 83.9%. Under setting [1], the AC50 was 23.1 µM [rising, partial curve].

On to `Cc1ccccc1OCC(=O)OCC(=O)NCCc1ccccc1`, for which the cell number change was -6.11%. Further, the concentration at half-maximal activity (AC50) under setting [2] was 0.0731 µM [falling, full curve, poor fit].

As for `O=C(Nc1c(F)cc(F)cc1Br)c1cccnc1`, the cell number change amounted to 8.33%.

As for `O=C1C(=O)N(CCN2CCOCC2)C(c2ccccc2)/C1=C(\O)c1ccc2c(c1)OCCO2` (centres undefined), the cell number change is -10.8%. Also, the AC50 under setting [2] was 29.1 µM [rising, single point].

Regarding `COc1cccc(NC(=O)Nc2ccc(C(C)(C)C)cc2)c1`, the cell number change was -16.9%. Moreover, under setting [2], the AC50 was 29.1 µM [falling, single point].

`COc1cccc(-n2ccnc2SCC(=O)N2CCc3ccccc32)c1`: the AC50 reads like this: under setting [1], 0.651 µM [falling, single point]; under setting [2], 20.6 µM [rising, single point].

Turning to `Cn1c(CNC(=O)OC(C)(C)C)n[nH]c1=S`, the cell number change stood at 14.6%. For the same molecule, the half-maximal activity concentration (AC50) under setting [2] was 32.6 µM [rising, single point].

Take `Cc1ccc(CNC(=O)C(=O)NCC2CCCN2S(=O)(=O)c2cc(C)ccc2C)cc1` (centres undefined): the cell number change came out at 11.4%.

As for `CCc1ccc(N2C(=O)C3CCCN3C2=S)cc1` (centres undefined), the cell number change was -45.4%. For the same molecule, under setting [1], the concentration at half-maximal activity (AC50) is 4.61 µM [falling, partial curve, poor fit]. Moreover, under setting [2], the AC50 is 7.31 µM [falling, partial curve].

On to `Nc1ccc(N(c2ccccc2)c2ccc(N)cc2)cc1`, for which the cell number change is -37.9%. Also, the concentration at half-maximal activity (AC50) under setting [1] is 29.1 µM [falling, single point]. Also, under setting [2], the AC50 was 29.1 µM [falling, single point].

As to `Cc1ccc(C(=O)COC(=O)CCC(=O)Nc2cccc(Cl)c2)cc1[N+](=O)[O-]`, the cell number change is -20.9%. Besides, the AC50 under setting [2] is 0.231 µM [falling, full curve, poor fit].

`CCN(CC)C(=O)C(C)N(C#N)c1nc(NC(C)C)nc(NC(C)C)n1` (centres undefined): the cell number change came to 173%. Also, under setting [1], the concentration at half-maximal activity (AC50) was 16.4 µM [rising, partial curve]. Also, the AC50 under setting [2] was 4.61 µM [rising, single point].

On to `COCCCNC(=S)NC1CC2CCCC(C1)N2Cc1ccco1` (centres undefined), for which the cell number change was -74.5%. In addition, the AC50 under setting [1] is 3.26 µM [falling, full curve]. The AC50 under setting [2] is 2.31 µM [falling, full curve].

In the case of `COc1ccc(CCNC(=O)CSc2nc(=O)n3cccc(C)c3n2)cc1OC`, under setting [1], the AC50 was 2.31 µM [rising, single point].

Take `CC(=O)c1c(C)oc2ccc(O)c(CN3CCOCC3)c12`: the cell number change is -15.1%. The AC50 under setting [2] was 0.00517 µM [rising, full curve, poor fit].

Turning to `CCN(CC)CCNC(=O)c1ccc(NC(=O)COc2ccccc2F)cc1`, the cell number change is 0.176%. Also, the concentration at half-maximal activity (AC50) under setting [1] was 3.66 µM [rising, single point].

On to `COC(=O)c1ccc[n+](CC(=O)Nc2ccc(OC(F)F)cc2)c1`, for which the cell number change came out at 2.6%.

With `O=C(OCCCc1cc2ccccc2c(=O)o1)c1ccc(F)cc1`, the cell number change amounted to 1.36%. The half-maximal activity concentration (AC50) under setting [2] was 11.6 µM [rising, single point].

On to `CCOC(=O)N1CCN(C(=O)C2CC(c3ccc(F)cc3)=NO2)CC1` (centres undefined), for which the cell number change worked out at 15%.

As to `CC(c1ccc(F)cc1)n1c(Cn2ncc3ccccc3c2=O)n[nH]c1=S` (centres undefined), the cell number change worked out at 19.2%. Also, the half-maximal activity concentration (AC50) under setting [2] is 1.16 µM [rising, full curve, poor fit].

In the case of `CC(=O)Nc1ccc(NC(=O)C2CCCN2C(=O)Nc2ccc(F)cc2)cc1` (centres undefined), the cell number change is -23.8%. Also, the AC50 under setting [2] was 0.206 µM [rising, single point].

For `Cc1cc(OCC(=O)Nc2ccc(CN3CCOCC3)cc2)ccc1Cl`, the cell number change was -1.73%. Besides, the AC50 under setting [2] is 29.1 µM [falling, single point].

As to `CCCS(=O)(=O)N1CCC(C(=O)N2CCN(Cc3ccccc3)CC2)CC1`, the cell number change worked out at 11.1%.

As to `CCOP(=O)(OCC)C(C)(C)NC(=O)c1cc([N+](=O)[O-])cc([N+](=O)[O-])c1`, the cell number change was 5.81%.

On to `O=C(c1cc2ccccc2o1)N1CCN(S(=O)(=O)c2cccs2)CC1`, for which the cell number change amounted to 21.8%. Further, the AC50 under setting [1] was 2.31 µM [rising, partial curve]. In addition, under setting [2], the AC50 was 0.651 µM [rising, partial curve].

On to `Cc1ccc(OCCC(=O)OCC(=O)NNC(=O)c2ccccc2)cc1`, for which the cell number change is -20.5%.

Take `CC(=O)c1c(C(C)=O)c(C)n(-c2cccc([N+](=O)[O-])c2)c1C`: the cell number change was -3.93%. In addition, under setting [1], the AC50 is 1.84 µM [falling, partial curve]. The AC50 under setting [2] was 2.31 µM [falling, partial curve].

On to `Cc1cc2oc(=O)cc(CN(C)Cc3ccccc3Cl)c2cc1C`, for which the cell number change was 5.13%. The AC50 under setting [2] was 0.116 µM [rising, single point].

In the case of `Cc1ccc(S(=O)(=O)NCc2ccccc2)cc1C(=O)N(C)Cc1ccc(F)cc1`, the cell number change was found to be 48%.

For `Cc1ccc(-c2ccc(/C=N/N=C3/NC(=O)C(CC(=O)O)S3)o2)c([N+](=O)[O-])c1` (centres undefined), the cell number change is -29.3%. Under setting [1], the AC50 is 0.13 µM [falling, full curve, poor fit]. In addition, the AC50 under setting [2] was 0.731 µM [falling, full curve].

In the case of `Cc1ccc(S(=O)(=O)N2CCN(c3ncnc4ccccc34)CC2)cc1`, the cell number change is -38.7%. Moreover, under setting [1], the AC50 was 29.1 µM [falling, single point]. Moreover, the AC50 under setting [2] is 0.411 µM [falling, partial curve].

`CCCCn1c(=NC(=O)c2ccco2)c(C(=O)OCC)cc2c(=O)n3ccccc3nc21`: the cell number change was -14.1%. Also, under setting [2], the AC50 was 3.26 µM [falling, full curve, poor fit].

On to `Cc1ccc(C(C)(C)C)cc1S(=O)(=O)N1CCC(C(=O)N2CCN(c3ccc(O)cc3)CC2)CC1`, for which the AC50 under setting [2] is 0.411 µM [falling, full curve].

On to `COc1ccc(S(=O)(=O)N(C)CC(=O)NCCC2=CCCCC2)cc1`, for which the cell number change is -27.5%. Moreover, under setting [1], the AC50 was 0.184 µM [falling, full curve]. Further, the AC50 under setting [2] is 16.4 µM [falling, partial curve].

As to `Cc1cccc(CN2CCC(C(=O)Nc3cccc(-c4cscn4)c3)CC2)n1`, the cell number change was -4.53%. Besides, the AC50 under setting [1] is 6.51 µM [rising, single point].

Turning to `CCSc1ncc(Cl)c(C(=O)Nc2ccc(S(=O)(=O)Nc3onc(C)c3C)cc2)n1`, under setting [2], the AC50 was 0.116 µM [falling, full curve, poor fit].

`COc1cc(CNCCc2c[nH]c3ccccc23)ccc1OCc1ccc(F)cc1`: the cell number change was -93.7%. In addition, under setting [1], the half-maximal activity concentration (AC50) is 29.1 µM [falling, single point]. For the same molecule, the concentration at half-maximal activity (AC50) under setting [2] was 23.1 µM [falling, single point].
